Data as given in the supplement of paper PMC10849652.
The list shows a part of the results.

Amino acid sequences for entries named in this document (tags omitted). A change or cut given only in a name is not applied to a line headed by its entry.
UniProt P42330: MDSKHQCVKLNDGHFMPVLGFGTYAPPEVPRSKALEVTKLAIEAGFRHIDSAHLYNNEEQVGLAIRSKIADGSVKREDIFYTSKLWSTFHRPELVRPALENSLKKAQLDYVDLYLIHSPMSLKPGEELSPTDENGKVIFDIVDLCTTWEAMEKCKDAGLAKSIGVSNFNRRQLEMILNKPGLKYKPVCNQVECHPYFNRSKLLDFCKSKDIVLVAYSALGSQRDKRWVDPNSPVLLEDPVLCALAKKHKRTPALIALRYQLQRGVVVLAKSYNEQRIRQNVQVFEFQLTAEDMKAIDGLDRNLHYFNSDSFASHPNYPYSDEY
UniProt Q9UKA4: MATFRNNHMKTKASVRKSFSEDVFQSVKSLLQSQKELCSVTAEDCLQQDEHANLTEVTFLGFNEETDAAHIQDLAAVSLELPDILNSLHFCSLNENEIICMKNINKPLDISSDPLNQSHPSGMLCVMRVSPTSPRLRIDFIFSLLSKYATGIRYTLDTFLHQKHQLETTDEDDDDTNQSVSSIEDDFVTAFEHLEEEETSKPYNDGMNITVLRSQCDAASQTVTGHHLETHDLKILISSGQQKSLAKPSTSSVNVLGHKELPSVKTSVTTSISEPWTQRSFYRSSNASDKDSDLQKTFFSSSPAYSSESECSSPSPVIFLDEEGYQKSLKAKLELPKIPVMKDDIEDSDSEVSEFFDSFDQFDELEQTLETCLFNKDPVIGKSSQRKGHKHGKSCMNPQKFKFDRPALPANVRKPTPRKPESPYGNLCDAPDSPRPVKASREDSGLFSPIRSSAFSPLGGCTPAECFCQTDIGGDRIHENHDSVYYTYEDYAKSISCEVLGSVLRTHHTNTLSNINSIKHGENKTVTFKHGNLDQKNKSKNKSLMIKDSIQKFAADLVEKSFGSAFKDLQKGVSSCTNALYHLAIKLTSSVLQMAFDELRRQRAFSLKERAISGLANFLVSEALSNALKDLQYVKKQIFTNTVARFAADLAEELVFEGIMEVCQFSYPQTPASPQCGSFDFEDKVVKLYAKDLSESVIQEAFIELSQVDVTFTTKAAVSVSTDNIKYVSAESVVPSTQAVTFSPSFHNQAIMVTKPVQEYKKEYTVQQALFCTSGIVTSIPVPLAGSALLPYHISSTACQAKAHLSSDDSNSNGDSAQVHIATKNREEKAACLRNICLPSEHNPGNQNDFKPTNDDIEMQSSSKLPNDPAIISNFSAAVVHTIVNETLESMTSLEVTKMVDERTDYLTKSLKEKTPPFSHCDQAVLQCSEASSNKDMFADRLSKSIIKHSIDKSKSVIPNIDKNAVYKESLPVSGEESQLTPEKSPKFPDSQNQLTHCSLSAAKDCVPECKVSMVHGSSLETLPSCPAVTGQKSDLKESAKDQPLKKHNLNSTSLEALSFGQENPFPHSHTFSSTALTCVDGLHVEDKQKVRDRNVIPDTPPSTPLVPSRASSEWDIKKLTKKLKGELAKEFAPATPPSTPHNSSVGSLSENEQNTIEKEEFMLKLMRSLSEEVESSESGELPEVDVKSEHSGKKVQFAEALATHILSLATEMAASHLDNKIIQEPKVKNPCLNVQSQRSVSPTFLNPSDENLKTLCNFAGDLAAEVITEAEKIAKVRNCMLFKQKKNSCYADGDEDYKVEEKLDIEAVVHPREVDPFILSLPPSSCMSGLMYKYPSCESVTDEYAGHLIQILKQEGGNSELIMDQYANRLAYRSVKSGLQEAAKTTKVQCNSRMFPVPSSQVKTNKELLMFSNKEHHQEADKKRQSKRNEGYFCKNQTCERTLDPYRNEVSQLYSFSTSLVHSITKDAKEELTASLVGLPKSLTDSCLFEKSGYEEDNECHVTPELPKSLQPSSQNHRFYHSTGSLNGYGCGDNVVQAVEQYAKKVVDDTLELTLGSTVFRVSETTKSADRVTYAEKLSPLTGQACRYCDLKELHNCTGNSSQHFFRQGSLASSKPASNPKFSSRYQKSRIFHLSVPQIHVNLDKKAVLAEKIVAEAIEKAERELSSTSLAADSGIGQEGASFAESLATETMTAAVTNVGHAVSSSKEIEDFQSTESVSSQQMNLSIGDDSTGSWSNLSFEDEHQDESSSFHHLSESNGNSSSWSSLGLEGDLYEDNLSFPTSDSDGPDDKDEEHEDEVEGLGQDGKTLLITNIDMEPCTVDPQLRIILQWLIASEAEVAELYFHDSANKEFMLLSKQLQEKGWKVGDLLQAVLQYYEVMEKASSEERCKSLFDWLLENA
UniProt O95433, whole entry, looked up: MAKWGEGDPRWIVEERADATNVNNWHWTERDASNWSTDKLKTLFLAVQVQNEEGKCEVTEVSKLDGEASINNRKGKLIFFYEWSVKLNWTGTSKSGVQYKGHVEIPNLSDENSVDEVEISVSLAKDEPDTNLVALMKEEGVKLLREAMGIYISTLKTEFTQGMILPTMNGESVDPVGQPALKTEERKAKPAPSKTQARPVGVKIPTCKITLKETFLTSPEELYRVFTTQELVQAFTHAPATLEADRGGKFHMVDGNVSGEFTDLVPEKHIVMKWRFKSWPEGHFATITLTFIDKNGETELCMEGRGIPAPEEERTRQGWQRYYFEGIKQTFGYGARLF
UniProt P42025, whole entry, looked up: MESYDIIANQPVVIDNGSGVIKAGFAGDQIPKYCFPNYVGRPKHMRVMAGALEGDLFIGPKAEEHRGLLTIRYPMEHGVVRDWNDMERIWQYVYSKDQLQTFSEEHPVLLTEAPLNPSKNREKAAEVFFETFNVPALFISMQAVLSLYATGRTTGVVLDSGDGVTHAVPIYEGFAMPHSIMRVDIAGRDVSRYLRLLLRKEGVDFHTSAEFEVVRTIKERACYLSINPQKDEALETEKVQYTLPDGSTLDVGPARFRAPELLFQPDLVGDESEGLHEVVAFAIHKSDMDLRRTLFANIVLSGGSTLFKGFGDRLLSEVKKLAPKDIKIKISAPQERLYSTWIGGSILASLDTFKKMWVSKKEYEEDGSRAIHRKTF
UniProt Q9Y3D8, whole entry, looked up: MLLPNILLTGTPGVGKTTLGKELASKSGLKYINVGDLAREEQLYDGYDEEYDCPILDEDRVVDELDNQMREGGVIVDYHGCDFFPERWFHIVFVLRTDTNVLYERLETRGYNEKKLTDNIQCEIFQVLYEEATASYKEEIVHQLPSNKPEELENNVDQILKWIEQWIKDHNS
UniProt Q6RW13: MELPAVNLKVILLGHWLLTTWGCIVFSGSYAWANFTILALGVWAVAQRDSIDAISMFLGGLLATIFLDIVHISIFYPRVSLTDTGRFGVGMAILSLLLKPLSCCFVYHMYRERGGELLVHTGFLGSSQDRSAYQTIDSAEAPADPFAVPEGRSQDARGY
UniProt Q9UHX3: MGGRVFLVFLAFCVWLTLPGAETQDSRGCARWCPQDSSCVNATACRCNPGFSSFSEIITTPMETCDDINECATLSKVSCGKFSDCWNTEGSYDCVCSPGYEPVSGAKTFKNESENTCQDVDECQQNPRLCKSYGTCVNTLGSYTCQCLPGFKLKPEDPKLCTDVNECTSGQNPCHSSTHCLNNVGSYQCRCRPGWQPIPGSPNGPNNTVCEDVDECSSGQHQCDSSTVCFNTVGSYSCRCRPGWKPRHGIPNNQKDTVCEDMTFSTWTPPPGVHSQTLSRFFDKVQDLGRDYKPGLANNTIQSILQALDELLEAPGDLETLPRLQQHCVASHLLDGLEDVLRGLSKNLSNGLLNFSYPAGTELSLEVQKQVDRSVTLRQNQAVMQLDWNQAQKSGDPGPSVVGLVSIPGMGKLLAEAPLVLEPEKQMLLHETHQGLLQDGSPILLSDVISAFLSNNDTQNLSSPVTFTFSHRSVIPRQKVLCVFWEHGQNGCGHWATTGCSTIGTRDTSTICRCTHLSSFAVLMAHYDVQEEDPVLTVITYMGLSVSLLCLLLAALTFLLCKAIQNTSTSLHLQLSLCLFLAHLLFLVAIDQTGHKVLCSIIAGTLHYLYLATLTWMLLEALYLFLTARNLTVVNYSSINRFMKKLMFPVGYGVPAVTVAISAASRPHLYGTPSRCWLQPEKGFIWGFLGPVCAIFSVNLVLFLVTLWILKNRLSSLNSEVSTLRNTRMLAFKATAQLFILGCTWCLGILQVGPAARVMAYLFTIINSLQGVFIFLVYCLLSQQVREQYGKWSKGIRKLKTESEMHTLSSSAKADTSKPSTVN
UniProt P27144: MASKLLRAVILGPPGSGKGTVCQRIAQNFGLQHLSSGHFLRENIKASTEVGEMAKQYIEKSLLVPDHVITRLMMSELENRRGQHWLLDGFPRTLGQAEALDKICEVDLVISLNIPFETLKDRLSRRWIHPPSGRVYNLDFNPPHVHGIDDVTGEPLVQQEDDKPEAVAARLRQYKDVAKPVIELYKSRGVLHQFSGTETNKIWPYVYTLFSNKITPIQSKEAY
UniProt O00468: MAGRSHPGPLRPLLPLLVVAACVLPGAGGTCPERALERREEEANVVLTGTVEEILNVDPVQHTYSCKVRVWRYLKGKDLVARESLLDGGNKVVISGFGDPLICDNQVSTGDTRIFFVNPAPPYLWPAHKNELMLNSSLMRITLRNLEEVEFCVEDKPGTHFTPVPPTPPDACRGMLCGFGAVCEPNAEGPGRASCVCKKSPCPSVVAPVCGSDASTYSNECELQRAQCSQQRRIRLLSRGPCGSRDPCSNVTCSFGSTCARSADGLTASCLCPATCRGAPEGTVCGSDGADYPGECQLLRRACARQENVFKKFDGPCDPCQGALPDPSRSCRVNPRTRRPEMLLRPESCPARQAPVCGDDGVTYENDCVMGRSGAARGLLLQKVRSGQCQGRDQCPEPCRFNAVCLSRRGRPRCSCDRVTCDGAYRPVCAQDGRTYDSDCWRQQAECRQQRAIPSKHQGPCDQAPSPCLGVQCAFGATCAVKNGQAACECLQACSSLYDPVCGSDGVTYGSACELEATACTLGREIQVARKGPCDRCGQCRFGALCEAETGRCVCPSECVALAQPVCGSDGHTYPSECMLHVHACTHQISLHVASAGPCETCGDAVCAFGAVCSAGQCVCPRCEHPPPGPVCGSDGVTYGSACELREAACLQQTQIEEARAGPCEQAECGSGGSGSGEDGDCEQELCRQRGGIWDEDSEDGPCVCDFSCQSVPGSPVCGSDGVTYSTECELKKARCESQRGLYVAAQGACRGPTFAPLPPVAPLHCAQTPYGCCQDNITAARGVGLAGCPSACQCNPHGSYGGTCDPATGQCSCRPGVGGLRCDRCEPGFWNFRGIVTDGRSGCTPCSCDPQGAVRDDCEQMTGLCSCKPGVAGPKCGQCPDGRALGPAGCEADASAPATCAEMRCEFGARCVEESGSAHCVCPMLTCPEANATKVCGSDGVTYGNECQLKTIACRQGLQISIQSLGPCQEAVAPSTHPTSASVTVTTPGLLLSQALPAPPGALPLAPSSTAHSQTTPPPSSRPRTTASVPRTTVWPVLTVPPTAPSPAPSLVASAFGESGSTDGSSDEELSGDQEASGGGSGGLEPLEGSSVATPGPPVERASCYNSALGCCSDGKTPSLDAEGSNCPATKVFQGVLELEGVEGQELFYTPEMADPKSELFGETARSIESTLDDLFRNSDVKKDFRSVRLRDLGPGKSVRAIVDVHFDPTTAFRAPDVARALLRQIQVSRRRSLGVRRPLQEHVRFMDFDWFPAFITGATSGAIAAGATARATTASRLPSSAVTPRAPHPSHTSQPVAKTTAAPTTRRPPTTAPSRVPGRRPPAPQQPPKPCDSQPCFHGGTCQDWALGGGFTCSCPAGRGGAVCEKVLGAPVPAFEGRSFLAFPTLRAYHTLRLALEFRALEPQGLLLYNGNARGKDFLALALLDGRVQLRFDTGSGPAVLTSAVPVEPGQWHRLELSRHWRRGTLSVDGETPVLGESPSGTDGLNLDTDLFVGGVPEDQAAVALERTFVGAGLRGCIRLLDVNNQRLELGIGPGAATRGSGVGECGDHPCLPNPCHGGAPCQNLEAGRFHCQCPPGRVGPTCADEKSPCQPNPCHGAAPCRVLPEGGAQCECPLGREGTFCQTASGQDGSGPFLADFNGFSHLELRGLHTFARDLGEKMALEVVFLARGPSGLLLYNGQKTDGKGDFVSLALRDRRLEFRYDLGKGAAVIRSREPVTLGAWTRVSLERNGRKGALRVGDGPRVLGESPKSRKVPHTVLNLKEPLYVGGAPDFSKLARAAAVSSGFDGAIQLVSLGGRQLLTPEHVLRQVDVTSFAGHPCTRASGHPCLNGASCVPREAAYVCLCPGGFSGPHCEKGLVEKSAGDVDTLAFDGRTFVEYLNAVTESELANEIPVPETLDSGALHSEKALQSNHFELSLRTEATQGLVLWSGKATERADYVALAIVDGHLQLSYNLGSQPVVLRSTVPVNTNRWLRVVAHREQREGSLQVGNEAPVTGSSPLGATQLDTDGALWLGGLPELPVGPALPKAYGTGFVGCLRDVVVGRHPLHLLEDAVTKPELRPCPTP

Key:
Test in all cases: log2 fold change, soluble protein after heating vs DMSO (PISA); higher = thermal stabilisation; K562 lysate, 10 uM; active = over 0.2 and 3.5 SD of the protein, either way, in both replicates (recomputed)
[1] = compound: C#Cc1cccc(Nc2ncnc3cc(OCCOC)c(OCCOC)cc23)c1 [erlotinib]
Method in brief: (§1)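 K562 pellets were dounce-homogenised in PBS pH 7.4 with 1 mM MgCl2, and the crude extract at 1 mg/mL protein was treated with 10 μM compound for 30 min. Aliquots were heated for 3 min across 48°C-58°C, pooled, and brought to 0.5% NP-40 at 4°C; soluble protein was the supernatant after 21,000xg for 90 min. Soluble protein was quantified by TMTpro 16plex LC-MS/MS with channel sums equalised, and reported as log2 fold change in thermal stability against DMSO controls, with values from duplicates.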

[2] = compound: C/C(=N\NC(=O)C1=CC(=CC=C1)S(=O)(=O)N2CCOCC2)/C3=C(C=CC(=C3)Cl)O
Method in brief: as §1

[3] = compound: C1=CC(=CC=C1C2=NC3=C(N2)C=C(C=C3)C(=O)N)OC4=CC=C(C=C4)Cl
Method in brief: as §1

[4] = compound: C1=CC2=C(C=CC(=C2)/C=C\3/C(=O)NC(=NCC4=CC=CS4)S3)N=C1
Method in brief: as §1

[5] = compound: C1=CC2=NC=CN=C2C=C1/C=C/3\C(=O)NC(=O)S3
Method in brief: as §1

[6] = compound: C1=CC=C(C=C1)C2=NC(=C(N2)C3=CC=NC=C3)C4=CC(=C(C=C4)Cl)O
Method in brief: as §1

[7] = compound: C1=CC=C2C(=C1)C3=NNC4=CC=CC(=C43)C2=O
Method in brief: as §1

[8] = compound: C1CCN(C1)C(=O)NC2=CC=CC(=C2)NC3=NC=C(C(=N3)NCCC4=CN=CN4)Br
Method in brief: as §1

[9] = compound: C1CN(CCC1(CC2=CC=C(C=C2)Cl)N)C3=NC=NC4=C3C=CN4
Method in brief: as §1

[10] = compound: C1COCCN1CCN2C3=CC=CC=C3N=C2NC(=O)C4=CC(=CC=C4)[N+](=O)[O-] [IRAK-1-4 Inhibitor I]
Method in brief: as §1

[11] = compound: C=CC(=O)N1CCC[C@@H](n2nc(-c3ccc(Oc4ccccc4)cc3)c3c(N)ncnc32)C1 [ibrutinib]
Method in brief: as §1

[12] = compound: CC(=O)c1cnc2ccc(-c3cc(Cl)c(O)c(Cl)c3)nc2c1N[C@H]1CC[C@H](CN(C)C)CC1
Method in brief: as §1

[13] = compound: CC(C)(C)Cn1c(N)nc2ccc(-c3[nH]c(C(C)(C)C)nc3-c3ccc(F)cc3)nc21 [ralimetinib]
Method in brief: as §1

[14] = compound: CC(C)(O)CC(=O)NCCn1ccc2ncnc(Nc3ccc(Oc4cccc(C(F)(F)F)c4)c(Cl)c3)c21
Method in brief: as §1

[15] = compound: CC(C)C1=C2N=C(C=C(N2N=C1)NCC3=CC=CC=C3)NCCCCCCN
Method in brief: as §1

[16] = compound: CC1=C(C(CC(=O)N1)C2=CC=C(C=C2)C(F)(F)F)C(=O)NC3=C(C=C4C(=C3)C=NN4)F
Method in brief: as §1

[17] = compound: CC1=C(C2=C(C=C1)C(=O)C3=CC=CC=C3N2CCCN)C
Method in brief: as §1

[18] = compound: CC1=C(C=C(C=C1)NC(=O)C2=CC(=CC=C2)C(C)(C)C#N)NC3=CC4=C(C=C3)N=CN(C4=O)C
Method in brief: as §1

[19] = compound: CC1=C(C=C(C=C1)NC(=O)C2=CC(=CC=C2)N(C)C)NC(=O)C3=CC=C(C=C3)O
Method in brief: as §1

[20] = compound: CC1=CC=C(C=C1)SC2=C3C=C(SC3=CN=C2)C(=O)N
Method in brief: as §1

Target	log2 fold change [1]	log2 fold change [2]	log2 fold change [3]	log2 fold change [4]	log2 fold change [5]	log2 fold change [6]	log2 fold change [7]	log2 fold change [8]	log2 fold change [9]	log2 fold change [10]	log2 fold change [11]	log2 fold change [12]	log2 fold change [13]	log2 fold change [14]	log2 fold change [15]	log2 fold change [16]	log2 fold change [17]	log2 fold change [18]	log2 fold change [19]	log2 fold change [20]
AGPS (UniProt O00116)	inactive: 0.033	inactive: -0.086	inactive: -0.014	inactive: 0.037	inactive: 0.019	inactive: -0.039	inactive: -0.082	inactive: -0.034	inactive: 0.015	inactive: 0.023	inactive: 0.01	inactive: -0.004	inactive: -0.013	inactive: -0.07	inactive: -0.065	inactive: 0.012	inactive: 0.025	inactive: -0.177	inactive: -0.005	inactive: -0.02
AKR1C3 (UniProt P42330)	inactive: 0.002	inactive: 0.023	inactive: -0.1	inactive: 0.029	inactive: 0.008	active: 0.3	inactive: 0.024	inactive: 0.05	inactive: 0.029	inactive: -0.017	inactive: -0.033	inactive: 0.016	inactive: -0.028	inactive: -0.003	inactive: -0.039	inactive: 0.011	active: 0.247	inactive: 0.02	inactive: -0.035	inactive: 0.001
AKAP11 (UniProt Q9UKA4)	inactive: 0.114	inactive: 0.232	inactive: 0.037	inactive: 0.095	inactive: 0.016	inactive: 0.059	active: -0.361	inactive: -0.064	inactive: 0.017	inactive: -0.071	inactive: 0.032	inactive: -0.111	inactive: 0.058	inactive: -0.068	inactive: 0.054	inactive: 0.065	inactive: -0.015	inactive: -0.002	inactive: 0.003	inactive: 0.085
AHSA1 (UniProt O95433)	inactive: -0.005	inactive: -0.021	inactive: 0.005	inactive: -0.046	inactive: 0.004	inactive: 0	inactive: 0.021	inactive: 0	inactive: -0.009	inactive: 0.019	inactive: 0.013	inactive: -0.013	inactive: -0.009	inactive: -0.027	inactive: 0.005	inactive: 0.002	inactive: 0.006	inactive: 0.01	inactive: -0.013	inactive: -0.019
ACTR1B (UniProt P42025)	inactive: 0.003	inactive: -0.082	inactive: 0.063	inactive: 0.102	inactive: -0.004	inactive: 0	inactive: 0.038	inactive: -0.03	inactive: -0.067	inactive: 0.024	inactive: -0.072	inactive: -0.017	inactive: -0.045	inactive: -0.031	inactive: 0.011	inactive: 0.013	inactive: 0.017	inactive: 0.046	inactive: 0.02	inactive: -0.037
AIMP1 isoform 2 (UniProt Q12904)	inactive: 0.044	inactive: 0.013	inactive: -0.028	inactive: 0.001	inactive: -0.03	inactive: 0.021	inactive: -0.025	inactive: -0.02	inactive: 0.02	inactive: 0.01	inactive: 0.009	inactive: 0.012	inactive: 0.026	inactive: 0.018	inactive: 0.022	inactive: -0.026	inactive: 0.005	inactive: -0.014	inactive: -0.006	inactive: 0.006
AK6 (UniProt Q9Y3D8)	inactive: -0.007	inactive: 0.005	inactive: 0.008	inactive: -0.024	inactive: -0.009	inactive: 0.002	inactive: -0.013	inactive: -0.03	inactive: 0.013	inactive: -0.044	inactive: 0.018	inactive: -0.02	inactive: 0.014	inactive: 0.008	inactive: -0.001	inactive: 0	inactive: 0.056	inactive: -0.044	inactive: 0.009	inactive: -0.029
AFP (UniProt P02771)	inactive: 0.002	inactive: 0.16	inactive: -0.003	inactive: 0.117	inactive: -0.032	inactive: 0.023	inactive: -0.137	inactive: 0.032	inactive: 0.039	inactive: 0.012	inactive: -0.026	inactive: 0.074	inactive: -0.022	inactive: -0.022	inactive: -0.048	inactive: 0.069	inactive: 0.014	inactive: -0.053	inactive: -0.02	inactive: 0.057
AFTPH isoform 9 (UniProt Q6ULP2)	inactive: -0.016	inactive: -0.042	inactive: 0.024	inactive: 0.01	inactive: 0.017	inactive: -0.014	inactive: 0.012	inactive: 0.042	inactive: -0.049	inactive: -0.009	inactive: 0.002	inactive: -0.003	inactive: 0.06	inactive: 0.021	inactive: -0.048	inactive: 0.103	inactive: 0.002	inactive: -0.031	inactive: -0.02	inactive: -0.023
AGTRAP (UniProt Q6RW13)	inactive: -0.002	inactive: 0.068	inactive: 0.005	inactive: 0.081	inactive: -0.055	inactive: 0.006	inactive: 0.009	inactive: -0.059	inactive: 0.012	inactive: 0.027	inactive: 0.01	inactive: -0.038	inactive: 0.073	inactive: -0.021	inactive: -0.016	inactive: -0.033	inactive: -0.024	inactive: -0.005	inactive: 0	inactive: 0.024
ACTR2 (UniProt P61160)	inactive: 0.011	inactive: 0.015	inactive: 0.023	inactive: 0.015	inactive: -0.006	inactive: -0.001	inactive: -0.007	inactive: 0.014	inactive: -0.005	inactive: 0.006	inactive: -0.006	inactive: -0.015	inactive: -0.002	inactive: -0.02	inactive: 0.019	inactive: -0.005	inactive: -0.012	inactive: 0.004	inactive: -0.003	inactive: 0.003
ADAM9 (UniProt Q13443)	inactive: -0.034	inactive: 0.039	inactive: 0.013	inactive: -0.058	inactive: -0.015	inactive: -0.088	inactive: -0.089	inactive: -0.019	inactive: 0.031	inactive: -0.012	inactive: -0.015	inactive: 0.046	inactive: 0.019	inactive: 0.031	inactive: -0.011	inactive: 0.03	inactive: 0.027	inactive: -0.074	inactive: -0.017	inactive: -0.015
ADGRE2 (UniProt Q9UHX3)	inactive: -0.061	inactive: 0.059	inactive: 0.019	inactive: -0.02	inactive: -0.025	inactive: -0.004	inactive: -0.08	inactive: 0.031	inactive: -0.038	inactive: -0.011	inactive: 0.041	inactive: -0.052	inactive: -0.04	inactive: -0.071	inactive: -0.06	inactive: 0.049	inactive: -0.01	inactive: 0	inactive: 0.006	inactive: -0.084
AK4 (UniProt P27144)	inactive: -0.024	inactive: 0.024	inactive: -0.024	inactive: -0.01	inactive: -0.01	inactive: 0.015	inactive: 0.015	inactive: 0.036	inactive: 0.02	inactive: -0.002	inactive: 0.06	inactive: -0.019	inactive: -0.036	inactive: -0.016	inactive: -0.008	inactive: 0.021	inactive: -0.005	inactive: 0.012	inactive: 0.022	inactive: -0.017
ACSL4 (UniProt O60488)	inactive: 0.004	inactive: -0.074	inactive: -0.053	inactive: 0.062	inactive: 0.022	inactive: -0.014	inactive: -0.032	inactive: -0.065	inactive: -0.007	inactive: 0.04	inactive: 0.035	inactive: -0.012	inactive: 0.051	inactive: -0.022	inactive: -0.015	inactive: 0.027	inactive: -0.079	inactive: -0.044	inactive: 0.052	inactive: 0.021
AGRN (UniProt O00468)	inactive: -0.083	inactive: 0.376	inactive: 0.008	inactive: 0.067	inactive: -0.046	inactive: 0.037	inactive: -0.194	inactive: -0.041	inactive: 0.062	inactive: 0.09	inactive: 0.123	inactive: 0.059	inactive: -0.005	inactive: -0.09	inactive: -0.017	inactive: -0.006	inactive: 0.037	inactive: 0.03	inactive: 0.045	inactive: -0.066

Laid out differently: results already given.
Target,log2 fold change [1],log2 fold change [2],log2 fold change [3],log2 fold change [4],log2 fold change [5],log2 fold change [6],log2 fold change [7],log2 fold change [8],log2 fold change [9],log2 fold change [10],log2 fold change [11],log2 fold change [12],log2 fold change [13],log2 fold change [14],log2 fold change [15],log2 fold change [16],log2 fold change [17],log2 fold change [18],log2 fold change [19],log2 fold change [20]
ADGRE2 (UniProt Q9UHX3),inactive: -0.061,inactive: 0.059,inactive: 0.019,inactive: -0.02,inactive: -0.025,inactive: -0.004,inactive: -0.08,inactive: 0.031,inactive: -0.038,inactive: -0.011,inactive: 0.041,inactive: -0.052,inactive: -0.04,inactive: -0.071,inactive: -0.06,inactive: 0.049,inactive: -0.01,inactive: 0,inactive: 0.006,inactive: -0.084
AK4 (UniProt P27144),inactive: -0.024,inactive: 0.024,inactive: -0.024,inactive: -0.01,inactive: -0.01,inactive: 0.015,inactive: 0.015,inactive: 0.036,inactive: 0.02,inactive: -0.002,inactive: 0.06,inactive: -0.019,inactive: -0.036,inactive: -0.016,inactive: -0.008,inactive: 0.021,inactive: -0.005,inactive: 0.012,inactive: 0.022,inactive: -0.017
ACSL4 (UniProt O60488),inactive: 0.004,inactive: -0.074,inactive: -0.053,inactive: 0.062,inactive: 0.022,inactive: -0.014,inactive: -0.032,inactive: -0.065,inactive: -0.007,inactive: 0.04,inactive: 0.035,inactive: -0.012,inactive: 0.051,inactive: -0.022,inactive: -0.015,inactive: 0.027,inactive: -0.079,inactive: -0.044,inactive: 0.052,inactive: 0.021
AGRN (UniProt O00468),inactive: -0.083,inactive: 0.376,inactive: 0.008,inactive: 0.067,inactive: -0.046,inactive: 0.037,inactive: -0.194,inactive: -0.041,inactive: 0.062,inactive: 0.09,inactive: 0.123,inactive: 0.059,inactive: -0.005,inactive: -0.09,inactive: -0.017,inactive: -0.006,inactive: 0.037,inactive: 0.03,inactive: 0.045,inactive: -0.066
